# Results are given in words; binding and its absence hold for the method and conditions named. Some entries that bind do so weakly or less than the wild type.
# Columns and labels:
# [1] = target: T1, soluble human FcRH5 protein fragment (human) (UniProt Q96RD9); experiment: BIACORE (FIG. 15)
# T1 sequence: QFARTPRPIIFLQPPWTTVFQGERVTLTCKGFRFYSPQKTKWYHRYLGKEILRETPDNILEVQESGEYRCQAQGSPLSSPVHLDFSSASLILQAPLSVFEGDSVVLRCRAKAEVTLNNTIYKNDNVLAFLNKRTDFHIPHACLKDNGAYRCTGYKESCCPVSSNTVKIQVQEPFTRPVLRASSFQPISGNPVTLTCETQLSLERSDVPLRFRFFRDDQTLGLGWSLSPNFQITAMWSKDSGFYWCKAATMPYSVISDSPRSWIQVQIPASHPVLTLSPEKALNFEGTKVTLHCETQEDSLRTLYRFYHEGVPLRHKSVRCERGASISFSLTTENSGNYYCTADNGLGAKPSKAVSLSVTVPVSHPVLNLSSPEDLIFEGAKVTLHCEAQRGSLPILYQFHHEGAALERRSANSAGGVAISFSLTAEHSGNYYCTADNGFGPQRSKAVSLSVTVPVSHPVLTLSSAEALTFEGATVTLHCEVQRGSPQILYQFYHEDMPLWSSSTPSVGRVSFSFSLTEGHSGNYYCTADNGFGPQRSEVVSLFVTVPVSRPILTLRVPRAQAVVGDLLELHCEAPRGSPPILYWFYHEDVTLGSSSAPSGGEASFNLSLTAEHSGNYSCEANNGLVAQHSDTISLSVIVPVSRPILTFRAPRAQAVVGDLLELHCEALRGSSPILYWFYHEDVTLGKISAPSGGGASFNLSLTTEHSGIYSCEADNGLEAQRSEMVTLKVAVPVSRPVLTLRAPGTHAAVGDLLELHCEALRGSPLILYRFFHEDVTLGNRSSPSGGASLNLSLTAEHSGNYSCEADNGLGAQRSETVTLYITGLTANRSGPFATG
# [2] = target: T1, soluble human FcRH5 protein fragment (human); experiment: BIACORE, TDB stressed with AAPH or light
# [3] = target: T1, soluble human FcRH5 protein fragment (human); experiment: ELISA
Binder,binding [1],binding [2],binding [3]
"1G7.v85/38E4.v1 TDB (bispecific antibody, V domains shown) VH 1: EVQLVESGPGLVKPSETLSLTCTVSGFSLTRFGVHWVRQPPGKGLEWLGVIWRGGSTDYNAAFVSRLTISKDNSKNQVSLKLSSVTAADTAVYYCSNHYYGSSDYALDNWGQGTLVTVSS VL 1: DIQMTQSPSSLSASVGDRVTITCKASQDVRNLVVWFQQKPGKAPKLLIYSGSYRYSGVPSRFSGSGSGTDFTLTISSLQPEDFATYYCQQHYSPPYTFGQGTKVEIK VH 2: EVQLVQSGAEVKKPGASVKVSCKASGFTFTSYYIHWVRQAPGQGLEWIGWIYPENDNTKYNEKFKDRVTITADTSTSTAYLELSSLRSEDTAVYYCARDGYSRYYFDYWGQGTLVTVSS VL 2: DIVMTQSPDSLAVSLGERATINCKSSQSLLNSRTRKNYLAWYQQKPGQSPKLLIYWTSTRKSGVPDRFSGSGSGTDFTLTISSLQAEDVAVYYCKQSFILRTFGQGTKVEIK",binds,binds,–
"F(ab′)2 A (bispecific antibody, V domains shown, hinge Cys crosslinked) VH 1: EVQLVESGPGLVKPSETLSLTCTVSGFSLTRFGVHWVRQPPGKGLEWLGVIWRGGSTDYNAAFVSRLTISKDNSKNQVSLKLSSVTAADTAVYYCSNHYYGSSDYALDNWGQGTLVTVSS VL 1: DIQMTQSPSSLSASVGDRVTITCKASQDVRNLVVWFQQKPGKAPKLLIYSGSYRYSGVPSRFSGSGSGTDFTLTISSLQPEDFATYYCQQHYSPPYTFGQGTKVEIK VH 2: EVQLVQSGAEVKKPGASVKVSCKASGFTFTSYYIHWVRQAPGQGLEWIGWIYPENDNTKYNEKFKDRVTITADTSTSTAYLELSSLRSEDTAVYYCARDGYSRYYFDYWGQGTLVTVSS VL 2: DIVMTQSPDSLAVSLGERATINCKSSQSLLNSRTRKNYLAWYQQKPGQSPKLLIYWTSTRKSGVPDRFSGSGSGTDFTLTISSLQAEDVAVYYCKQSFILRTFGQGTKVEIK",–,–,binds

# — patent publication US20220048993A1
